Assay results from PubChem BioAssay AID493014 (National Center for Advancing Translational Sciences (NCATS), 2011).
This is one part of the list. Further columns of the screen follow, without active or inactive calls. The list favours compounds with an active or inconclusive main result. The note in brackets gives the kind of curve behind each potency; many fits are weak.

Test: qHTS Assay to Find Inhibitors of Chronic Active B-Cell Receptor Signaling
Settings: ABC-DLBCL IkBa-CBG/CBR reporter, luminescence ratio (green luciferase fused to IkBa over red control in TMD8 lymphoma cells), 4 h
How it was run: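 Compounds up to 46 uM were incubated four hours with TMD8 cells whose green CBG68 luciferase is fused to IkappaBalpha; red CBR luminescence normalised the signal, and concentration-effect curves were fitted to fusion, red and ratio data.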

[1] = measured here: IkBa-CBG green luminescence
[2] = measured here: CBR red luminescence, cell number

Row | SMILES | AC50 [1] | AC50 [2]
1 | O=C(CSc1cccc[n+]1[O-])Nc1cc2c(cc1Cl)C(=O)c1ccccc1C2=O | 29.1 µM [falling, single point] | 
2 | O=C(O)c1ccc(-n2nnnc2SCc2ccccc2Br)cc1 |  | 20 µM [rising, partial curve, poor fit]
3 | NC(=O)[C@H]1CC2(CC(c3cccc(NC(=O)COc4ccc(Cl)cc4)c3)=NO2)CN1C(=O)C(c1ccccc1)c1ccccc1 (some centres undefined) |  | 5.01 µM [falling, full curve]
4 | Cc1cc(Sc2ncnc(N)c2[N+](=O)[O-])ncn1 | 35.5 µM [rising, single point] | 7.94 µM [falling, partial curve]
5 | COc1ccc(N=C(C)c2sc3ccccc3c2O)cc1 |  | 2.51 µM [rising, full curve]
6 | CC(C)NC(=O)CN1CCN(C(=O)c2ccc3oc(CCCc4ccccc4)nc3c2)CC1 |  | 6.31 µM [falling, partial curve]
7 | COc1cc(C(=O)Nc2ccc3c(c2)nc(C)n3C)cc(OC)c1OC | 35.5 µM [falling, single point] | 
8 | COc1ccc2[nH]c3c(N4CCc5ccccc5C4)ncnc3c2c1 |  | 12.6 µM [falling, partial curve]
9 | CCc1nn(CC(=O)N2CCC(C(N)=O)CC2)c(=O)c2cc3occc3n12 |  | 28.2 µM [rising, single point]
10 | CSCC[C@H](NC(=O)[C@@H]1Cc2ccccc2CN1)C(=O)NC1CCCCC1 |  | 8.91 µM [falling, partial curve, poor fit]
11 | Cc1ccc(C)c(Nc2cc(C(=O)NCc3cccnc3)c3ccccc3n2)c1 |  | 35.5 µM [falling, single point]
12 | CCOC(=O)c1nc(S(C)(=O)=O)ncc1Cl |  | 35.5 µM [falling, single point]
13 | CN(C)CCCNCC(=O)c1c(-c2ccccc2)n(C)c2ccccc12 | 17.8 µM [falling, single point] | 
14 | COc1ccccc1C1=NC(c2ccc(C)cc2)N=C1C (centres undefined) |  | 12.6 µM [falling, single point]
15 | O=C(Nc1ccc(CN2CCCCC2)cc1)c1cc(Br)ccc1Cl |  | 0.891 µM [rising, full curve, poor fit]
16 | Cc1ccc(CSc2nnc(-c3ccccn3)n2N)cc1 |  | 7.94 µM [falling, partial curve]

Row | SMILES | AC50 [1] | AC50 [2]
17 | Cc1cc(NC2CCCC2)n2nc(C)c(-c3ccccc3)c2n1 |  | 20 µM [falling, single point]
18 | Cc1cc(-c2csc(Nc3ccccn3)n2)ccc1F |  | 4.47 µM [falling, partial curve]
19 | CCOC(=O)c1c(NC(=O)C2C3C=CC(C3)C2C(=O)O)sc2c1CCC(CC)C2 (centres undefined) |  | 29.1 µM [falling, single point]
20 | Nc1c(NCCN2CCOCC2)c2ccccc2oc1=O |  | 11.6 µM [falling, partial curve]
21 | Cc1nc(SCC(=O)Nc2nccs2)c(C#N)c(C)c1C |  | 2.06 µM [falling, partial curve, poor fit]
22 | O=C(CNc1cccc2ccccc12)N/N=C/c1ccc[nH]1 |  | 15.8 µM [rising, single point]
23 | CCS(=O)(=O)c1ncc(Cl)c(C(=O)Nc2ccc(S(=O)(=O)N3CCCC(C)C3)cc2)n1 (centres undefined) |  | 22.4 µM [falling, single point]
24 | Cc1cc(N2CCN(Cc3cn(C)nc3-c3ccccc3F)CC2)cc(C)n1 |  | 6.31 µM [falling, partial curve, poor fit]
25 | O=C(Nc1ccc(Cl)cc1)Nc1ccccn1 |  | 1 µM [rising, full curve, poor fit]
26 | O=C(NCc1cccs1)C1CC(c2ccc(F)cc2)=NO1 (centres undefined) |  | 11.2 µM [falling, partial curve, poor fit]
27 | Cc1cccc(Oc2cc(NC(=O)c3ccccc3)cc([N+](=O)[O-])c2)c1 |  | 8.91 µM [falling, partial curve, poor fit]
28 | O=C(Nc1ccc(Cl)cn1)c1ccc(COc2ccccc2Br)o1 |  | 35.5 µM [falling, single point]
29 | Cc1cc(C)c(NC(=O)CNC(=O)COC(=O)Cc2ccccc2C)c(C)c1 |  | 32.6 µM [rising, partial curve, poor fit]
30 | Cn1c(Sc2ccccc2Cl)c(C=O)c2ccccc21 |  | 5.01 µM [falling, single point]
31 | COc1ccc(CNCC(=O)Nc2sccc2C#N)cc1 |  | 0.1 µM [rising, full curve, poor fit]
32 | Nc1nonc1-n1nnc(C(=O)N/N=C/c2ccc(O)cc2)c1COc1ccc(F)cc1 | 35.5 µM [rising, partial curve, poor fit] | 22.4 µM [falling, single point]

Some of these compounds in order of length of the SMILES, low to high:
Row | SMILES | AC50 [1] | AC50 [2]
5 | COc1ccc(N=C(C)c2sc3ccccc3c2O)cc1 |  | 2.51 µM [rising, full curve]
8 | COc1ccc2[nH]c3c(N4CCc5ccccc5C4)ncnc3c2c1 |  | 12.6 µM [falling, partial curve]
19 | CCOC(=O)c1c(NC(=O)C2C3C=CC(C3)C2C(=O)O)sc2c1CCC(CC)C2 (centres undefined) |  | 29.1 µM [falling, single point]
